Reference: the supplement of paper PMC10849652
The other results are listed elsewhere or left out.

Chains of the proteins cited; added tags and fusions are not shown. Lines headed by an entry give the natural chain unless they say otherwise; changes in a name come on top.
UniProt Q15651: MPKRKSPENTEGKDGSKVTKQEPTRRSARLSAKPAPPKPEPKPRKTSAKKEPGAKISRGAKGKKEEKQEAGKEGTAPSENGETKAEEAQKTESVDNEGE
UniProt Q01581: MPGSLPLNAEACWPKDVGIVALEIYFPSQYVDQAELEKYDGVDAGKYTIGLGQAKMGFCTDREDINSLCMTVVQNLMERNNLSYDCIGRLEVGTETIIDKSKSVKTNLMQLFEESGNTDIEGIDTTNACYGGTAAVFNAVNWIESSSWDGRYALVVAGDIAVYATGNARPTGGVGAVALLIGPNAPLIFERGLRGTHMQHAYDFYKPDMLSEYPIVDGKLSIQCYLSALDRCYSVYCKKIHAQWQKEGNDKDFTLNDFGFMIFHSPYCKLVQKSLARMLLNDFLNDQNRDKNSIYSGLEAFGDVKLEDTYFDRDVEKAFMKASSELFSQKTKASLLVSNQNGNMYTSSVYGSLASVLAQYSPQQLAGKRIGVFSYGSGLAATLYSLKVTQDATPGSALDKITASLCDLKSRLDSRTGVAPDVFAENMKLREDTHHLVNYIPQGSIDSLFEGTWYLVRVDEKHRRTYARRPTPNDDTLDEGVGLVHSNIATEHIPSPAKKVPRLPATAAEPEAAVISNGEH
UniProt P61604, whole entry, looked up: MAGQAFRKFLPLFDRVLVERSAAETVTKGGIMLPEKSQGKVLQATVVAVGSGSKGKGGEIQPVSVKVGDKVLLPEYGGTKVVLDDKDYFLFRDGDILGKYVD
UniProt Q14773: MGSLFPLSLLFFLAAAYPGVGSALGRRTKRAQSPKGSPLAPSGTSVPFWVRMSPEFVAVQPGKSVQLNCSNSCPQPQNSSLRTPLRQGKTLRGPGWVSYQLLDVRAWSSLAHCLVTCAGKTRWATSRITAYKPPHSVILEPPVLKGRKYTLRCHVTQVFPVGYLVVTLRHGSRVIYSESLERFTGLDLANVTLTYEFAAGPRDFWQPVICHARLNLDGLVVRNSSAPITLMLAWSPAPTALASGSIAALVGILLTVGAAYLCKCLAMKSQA
UniProt Q9BW71: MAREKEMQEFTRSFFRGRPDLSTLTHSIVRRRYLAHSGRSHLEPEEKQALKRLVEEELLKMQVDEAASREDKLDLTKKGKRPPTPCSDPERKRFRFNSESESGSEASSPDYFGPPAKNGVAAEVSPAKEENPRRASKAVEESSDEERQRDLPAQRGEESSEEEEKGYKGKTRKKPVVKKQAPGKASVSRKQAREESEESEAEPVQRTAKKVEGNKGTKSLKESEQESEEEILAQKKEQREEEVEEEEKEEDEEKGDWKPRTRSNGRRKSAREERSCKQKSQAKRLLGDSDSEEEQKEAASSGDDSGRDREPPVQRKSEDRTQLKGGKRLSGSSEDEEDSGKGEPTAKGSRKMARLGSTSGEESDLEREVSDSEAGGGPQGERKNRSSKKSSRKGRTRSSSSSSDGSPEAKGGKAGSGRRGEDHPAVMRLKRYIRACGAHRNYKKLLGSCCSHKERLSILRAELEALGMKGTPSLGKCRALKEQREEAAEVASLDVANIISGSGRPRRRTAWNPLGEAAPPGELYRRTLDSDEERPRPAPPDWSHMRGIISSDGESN
UniProt P13598: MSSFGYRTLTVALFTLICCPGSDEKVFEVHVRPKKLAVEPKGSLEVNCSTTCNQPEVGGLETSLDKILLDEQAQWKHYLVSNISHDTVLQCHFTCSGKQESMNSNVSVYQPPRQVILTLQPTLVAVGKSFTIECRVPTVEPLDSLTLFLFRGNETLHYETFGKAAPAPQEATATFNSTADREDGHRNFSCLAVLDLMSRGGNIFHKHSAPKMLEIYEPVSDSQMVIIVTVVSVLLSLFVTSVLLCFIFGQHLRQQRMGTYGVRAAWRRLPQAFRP
UniProt Q9BUP3: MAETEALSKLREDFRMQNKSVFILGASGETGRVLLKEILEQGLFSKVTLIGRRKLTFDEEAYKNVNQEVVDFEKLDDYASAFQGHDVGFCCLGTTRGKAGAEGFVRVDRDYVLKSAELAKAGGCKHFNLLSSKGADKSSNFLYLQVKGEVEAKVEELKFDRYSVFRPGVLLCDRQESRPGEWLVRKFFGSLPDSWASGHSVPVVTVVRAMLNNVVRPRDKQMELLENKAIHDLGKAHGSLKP
UniProt Q58FF6, whole entry, looked up: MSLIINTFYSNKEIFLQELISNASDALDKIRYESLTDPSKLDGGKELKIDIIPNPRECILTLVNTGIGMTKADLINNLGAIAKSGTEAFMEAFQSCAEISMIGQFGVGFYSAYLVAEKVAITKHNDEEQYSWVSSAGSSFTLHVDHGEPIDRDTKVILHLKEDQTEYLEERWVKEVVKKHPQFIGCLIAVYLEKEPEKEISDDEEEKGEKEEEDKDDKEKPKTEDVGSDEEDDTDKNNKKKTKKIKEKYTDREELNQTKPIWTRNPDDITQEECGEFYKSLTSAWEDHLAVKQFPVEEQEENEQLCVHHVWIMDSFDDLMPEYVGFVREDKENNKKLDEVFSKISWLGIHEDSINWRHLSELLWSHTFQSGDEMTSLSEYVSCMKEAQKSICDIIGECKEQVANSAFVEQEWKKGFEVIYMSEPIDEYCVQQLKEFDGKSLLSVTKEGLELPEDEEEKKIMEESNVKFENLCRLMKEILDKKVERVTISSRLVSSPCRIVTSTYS
UniProt P13747, whole entry, looked up: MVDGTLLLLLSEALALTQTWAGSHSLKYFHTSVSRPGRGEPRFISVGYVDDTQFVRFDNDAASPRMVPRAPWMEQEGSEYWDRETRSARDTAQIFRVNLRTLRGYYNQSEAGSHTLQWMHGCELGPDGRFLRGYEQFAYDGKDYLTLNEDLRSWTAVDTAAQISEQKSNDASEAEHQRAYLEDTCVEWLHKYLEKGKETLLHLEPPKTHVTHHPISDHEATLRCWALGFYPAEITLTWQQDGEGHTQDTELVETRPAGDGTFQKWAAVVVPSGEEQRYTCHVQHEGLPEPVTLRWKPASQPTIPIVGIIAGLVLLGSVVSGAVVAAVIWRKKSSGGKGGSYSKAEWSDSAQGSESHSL
UniProt O95757: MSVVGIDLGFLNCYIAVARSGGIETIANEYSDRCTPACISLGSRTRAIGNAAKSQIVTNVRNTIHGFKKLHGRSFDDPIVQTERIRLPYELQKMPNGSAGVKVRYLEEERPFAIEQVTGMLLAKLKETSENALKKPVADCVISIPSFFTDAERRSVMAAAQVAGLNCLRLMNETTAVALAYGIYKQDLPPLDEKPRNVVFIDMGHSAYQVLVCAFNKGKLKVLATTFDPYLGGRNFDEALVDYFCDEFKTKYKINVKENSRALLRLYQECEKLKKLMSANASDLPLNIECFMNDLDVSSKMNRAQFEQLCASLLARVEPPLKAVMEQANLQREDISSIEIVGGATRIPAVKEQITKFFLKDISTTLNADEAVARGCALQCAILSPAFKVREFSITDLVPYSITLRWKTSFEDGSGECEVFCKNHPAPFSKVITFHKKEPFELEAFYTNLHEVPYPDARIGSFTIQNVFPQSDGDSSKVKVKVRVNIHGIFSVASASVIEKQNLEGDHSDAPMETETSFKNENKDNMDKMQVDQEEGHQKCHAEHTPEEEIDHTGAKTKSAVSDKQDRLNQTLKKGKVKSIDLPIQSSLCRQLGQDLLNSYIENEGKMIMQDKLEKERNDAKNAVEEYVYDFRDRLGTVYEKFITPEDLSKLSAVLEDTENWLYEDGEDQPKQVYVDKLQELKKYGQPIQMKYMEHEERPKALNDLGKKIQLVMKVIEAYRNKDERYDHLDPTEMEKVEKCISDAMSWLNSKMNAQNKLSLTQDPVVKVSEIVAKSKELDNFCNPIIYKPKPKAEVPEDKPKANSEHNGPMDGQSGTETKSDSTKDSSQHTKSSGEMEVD
UniProt P55795: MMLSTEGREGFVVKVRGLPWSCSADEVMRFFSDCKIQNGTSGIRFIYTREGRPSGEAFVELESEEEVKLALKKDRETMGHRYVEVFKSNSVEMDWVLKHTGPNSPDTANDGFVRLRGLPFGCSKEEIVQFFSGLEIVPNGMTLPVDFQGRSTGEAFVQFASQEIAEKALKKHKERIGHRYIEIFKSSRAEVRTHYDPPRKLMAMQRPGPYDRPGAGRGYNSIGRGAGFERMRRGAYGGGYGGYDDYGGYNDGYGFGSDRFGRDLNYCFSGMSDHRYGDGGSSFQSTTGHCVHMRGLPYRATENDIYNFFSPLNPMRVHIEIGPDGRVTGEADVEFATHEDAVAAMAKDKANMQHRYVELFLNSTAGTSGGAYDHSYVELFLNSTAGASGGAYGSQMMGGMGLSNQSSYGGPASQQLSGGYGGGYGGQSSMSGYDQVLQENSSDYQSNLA
UniProt Q9UMF0: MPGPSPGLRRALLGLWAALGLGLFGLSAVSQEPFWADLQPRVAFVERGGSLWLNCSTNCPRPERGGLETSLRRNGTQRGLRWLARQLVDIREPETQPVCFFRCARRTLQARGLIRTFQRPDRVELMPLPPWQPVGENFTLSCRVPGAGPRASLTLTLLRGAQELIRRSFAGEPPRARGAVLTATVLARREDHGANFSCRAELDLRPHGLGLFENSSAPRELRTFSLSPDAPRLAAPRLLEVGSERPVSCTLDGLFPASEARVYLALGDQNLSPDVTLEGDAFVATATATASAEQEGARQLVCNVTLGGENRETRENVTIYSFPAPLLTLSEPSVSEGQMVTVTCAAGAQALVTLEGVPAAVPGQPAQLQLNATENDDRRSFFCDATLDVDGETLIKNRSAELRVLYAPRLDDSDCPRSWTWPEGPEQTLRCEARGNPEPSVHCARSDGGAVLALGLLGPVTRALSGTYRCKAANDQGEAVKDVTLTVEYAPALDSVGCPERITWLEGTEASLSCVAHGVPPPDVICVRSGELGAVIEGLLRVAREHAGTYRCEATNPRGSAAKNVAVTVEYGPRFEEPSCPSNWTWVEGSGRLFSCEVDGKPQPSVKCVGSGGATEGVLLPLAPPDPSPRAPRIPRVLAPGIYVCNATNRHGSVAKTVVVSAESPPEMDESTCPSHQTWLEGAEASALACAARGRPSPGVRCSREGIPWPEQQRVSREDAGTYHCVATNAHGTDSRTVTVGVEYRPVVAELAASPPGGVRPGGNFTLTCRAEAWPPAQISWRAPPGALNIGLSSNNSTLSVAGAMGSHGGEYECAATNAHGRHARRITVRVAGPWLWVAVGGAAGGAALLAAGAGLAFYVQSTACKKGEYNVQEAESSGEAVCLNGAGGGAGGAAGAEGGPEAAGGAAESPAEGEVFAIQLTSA
UniProt P14866: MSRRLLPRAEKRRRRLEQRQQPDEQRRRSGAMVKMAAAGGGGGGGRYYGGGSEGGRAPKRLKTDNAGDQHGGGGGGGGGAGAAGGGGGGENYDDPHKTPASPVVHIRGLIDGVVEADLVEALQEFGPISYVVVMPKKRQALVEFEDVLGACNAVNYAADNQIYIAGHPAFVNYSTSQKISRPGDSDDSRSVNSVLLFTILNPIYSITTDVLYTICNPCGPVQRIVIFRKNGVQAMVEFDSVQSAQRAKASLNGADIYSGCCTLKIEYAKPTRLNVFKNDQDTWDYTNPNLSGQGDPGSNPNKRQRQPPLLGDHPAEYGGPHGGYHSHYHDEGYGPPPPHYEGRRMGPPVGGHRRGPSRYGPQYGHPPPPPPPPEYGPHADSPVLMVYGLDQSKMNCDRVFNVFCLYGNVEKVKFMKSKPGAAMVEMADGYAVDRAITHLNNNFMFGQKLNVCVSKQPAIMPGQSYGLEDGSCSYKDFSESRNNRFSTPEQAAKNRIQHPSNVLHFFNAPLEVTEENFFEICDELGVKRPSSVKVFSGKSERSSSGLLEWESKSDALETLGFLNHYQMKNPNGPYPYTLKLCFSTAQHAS
UniProt P48723: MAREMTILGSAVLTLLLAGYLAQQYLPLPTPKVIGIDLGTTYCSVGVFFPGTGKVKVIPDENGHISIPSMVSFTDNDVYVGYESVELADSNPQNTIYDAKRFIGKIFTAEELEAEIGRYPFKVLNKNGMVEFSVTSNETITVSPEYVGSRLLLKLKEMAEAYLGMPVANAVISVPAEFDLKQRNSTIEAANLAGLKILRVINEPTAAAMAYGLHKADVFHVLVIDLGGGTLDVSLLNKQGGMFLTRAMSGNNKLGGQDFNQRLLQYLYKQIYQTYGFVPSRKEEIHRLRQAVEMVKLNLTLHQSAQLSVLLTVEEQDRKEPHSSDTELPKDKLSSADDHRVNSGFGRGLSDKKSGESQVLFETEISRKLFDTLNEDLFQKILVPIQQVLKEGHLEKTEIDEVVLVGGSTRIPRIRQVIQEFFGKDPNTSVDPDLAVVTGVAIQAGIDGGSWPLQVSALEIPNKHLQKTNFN
UniProt Q7LGA3: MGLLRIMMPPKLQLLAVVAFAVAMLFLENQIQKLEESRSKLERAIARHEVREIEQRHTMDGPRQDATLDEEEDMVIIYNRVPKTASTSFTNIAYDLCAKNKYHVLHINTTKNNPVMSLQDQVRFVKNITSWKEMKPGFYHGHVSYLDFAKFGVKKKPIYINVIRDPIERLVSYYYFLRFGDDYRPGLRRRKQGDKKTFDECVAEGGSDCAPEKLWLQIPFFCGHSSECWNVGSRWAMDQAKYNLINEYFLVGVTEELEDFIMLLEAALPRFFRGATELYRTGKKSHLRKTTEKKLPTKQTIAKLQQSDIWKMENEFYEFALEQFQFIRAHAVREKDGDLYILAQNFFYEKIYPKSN

What was measured:
Assay in all cases: log2 fold change, soluble protein after heating vs DMSO (PISA); higher = thermal stabilisation; K562 cells, 10 uM, 30 min; active = over 0.2 and 3.5 SD of the protein, either way, in both replicates (recomputed)
saracatinib = compound: CN1CCN(CCOc2cc(OC3CCOCC3)c3c(Nc4c(Cl)ccc5c4OCO5)ncnc3c2)CC1 [saracatinib]
How it was run: (§1)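 Quantification of soluble protein used TMTpro 16plex LC-MS/MS, with channel sums equalised. Samples were the supernatant after 21,000xg for 90 min of pooled aliquots from K562 cells (2×10^6 cells/mL) treated with 10 μM compound for 30 min, heated for 3 min over 48°C-58°C, and extracted in PBS with 0.5% NP-40 at 4°C. Values, from duplicates, describe thermal stability against control samples on a log2 fold-change scale.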

sotrastaurin = compound: CN1CCN(c2nc(C3=C(c4c[nH]c5ccccc45)C(=O)NC3=O)c3ccccc3n2)CC1 [sotrastaurin]
How it was run: as §1

alvocidib = compound: CN1CC[C@H](c2c(O)cc(O)c3c(=O)cc(-c4ccccc4Cl)oc23)[C@H](O)C1 [alvocidib]
How it was run: as §1

Tubastatin A = compound: CN1CCc2c(c3ccccc3n2Cc2ccc(C(=O)NO)cc2)C1 [Tubastatin A]
How it was run: as §1

[1] = compound: CNC(=O)C1=CC=CC=C1NC2=NC(=NC=C2Cl)NC3=C(C=C(C=C3)N4CCOCC4)OC
How it was run: as §1

defactinib = compound: CNC(=O)c1ccc(Nc2ncc(C(F)(F)F)c(NCc3nccnc3N(C)S(C)(=O)=O)n2)cc1 [defactinib]
How it was run: as §1

rucaparib = compound: CNCc1ccc(-c2[nH]c3cc(F)cc4c3c2CCNC4=O)cc1 [rucaparib]
How it was run: as §1

[2] = compound: CNc1nc(-c2ccc3c(N)n[nH]c3c2)cc(N2C[C@@H](C(=O)NC3CCCCC3)CC[C@H]2C)n1
How it was run: as §1

encorafenib = compound: COC(=O)N[C@@H](C)CNc1nccc(-c2cn(C(C)C)nc2-c2cc(Cl)cc(NS(C)(=O)=O)c2F)n1 [encorafenib]
How it was run: as §1

[3] = compound: COC(=O)[C@H](CCSC)NC(=O)C1=C(C=C(C=C1)NC[C@H](CS)N)C2=CC=CC=C2
How it was run: as §1

Measured: log2 fold change

HNRNPA2B1 (UniProt P22626)
inactive: saracatinib 0.021 | sotrastaurin 0.03 | alvocidib 0.314 | Tubastatin A -0.029 | [1] 0.067 | defactinib 0.435 | rucaparib 0.349 | [2] -0.036 | encorafenib 0.056 | [3] 0.069

HSD17B11 (UniProt Q8NBQ5)
inactive: saracatinib 0.02 | sotrastaurin 0.022 | alvocidib -0.051 | Tubastatin A -0.002 | [1] 0.003 | defactinib 0.005 | rucaparib -0.073 | [2] 0.003 | encorafenib 0.01 | [3] -0.013

HSPG2 (UniProt P98160)
inactive: saracatinib 0.012 | sotrastaurin 0.002 | alvocidib -0.044 | Tubastatin A -0.01 | [1] 0.02 | defactinib -0.016 | rucaparib -0.008 | [2] -0.085 | encorafenib 0.008 | [3] 0.016

HM13 isoform 2 (UniProt Q8TCT9)
inactive: saracatinib 0.069 | sotrastaurin 0.05 | alvocidib 0.008 | Tubastatin A 0.007 | [1] -0.018 | defactinib -0.002 | rucaparib -0.058 | [2] -0.011 | encorafenib 0 | [3] 0.008

HSF1 (UniProt Q00613)
inactive: saracatinib -0.022 | sotrastaurin -0.335 | alvocidib -0.144 | Tubastatin A 0.184 | [1] -0.008 | defactinib -0.222 | rucaparib -0.086 | [2] -0.019 | encorafenib 0.105 | [3] -0.002

2 successive records from above, for reference:
HSD17B11 (UniProt Q8NBQ5)
inactive: saracatinib 0.02 | sotrastaurin 0.022 | alvocidib -0.051 | Tubastatin A -0.002 | [1] 0.003 | defactinib 0.005 | rucaparib -0.073 | [2] 0.003 | encorafenib 0.01 | [3] -0.013

HSPG2 (UniProt P98160)
inactive: saracatinib 0.012 | sotrastaurin 0.002 | alvocidib -0.044 | Tubastatin A -0.01 | [1] 0.02 | defactinib -0.016 | rucaparib -0.008 | [2] -0.085 | encorafenib 0.008 | [3] 0.016

The results go on.

HSP90AA4P (UniProt Q58FG1)
inactive: saracatinib -0.041 | sotrastaurin 0.018 | alvocidib 0.109 | Tubastatin A -0.022 | [1] 0.069 | defactinib -0.004 | rucaparib -0.042 | [2] -0.028 | encorafenib 0.037 | [3] 0.087

HMGN3 (UniProt Q15651)
inactive: saracatinib -0.178 | sotrastaurin 0.029 | alvocidib 0.081 | Tubastatin A 0.009 | [1] -0.05 | defactinib 0.017 | rucaparib 0.083 | [2] -0.072 | encorafenib -0.042 | [3] 0.08

HSCB (UniProt Q8IWL3)
inactive: saracatinib 0.004 | sotrastaurin 0.001 | alvocidib -0.033 | Tubastatin A -0.074 | [1] -0.018 | defactinib -0.193 | [2] -0.099 | [3] 0.011

HMGCS1 (UniProt Q01581)
inactive: saracatinib -0.016 | sotrastaurin 0.011 | alvocidib -0.017 | Tubastatin A -0.035 | [1] -0.052 | defactinib 0.002 | rucaparib 0.022 | [2] -0.061 | encorafenib -0.034 | [3] 0.033

HSPE1 (UniProt P61604)
inactive: saracatinib 0.008 | sotrastaurin 0.019 | alvocidib 0.01 | Tubastatin A -0.042 | [1] 0.023 | defactinib 0.035 | rucaparib -0.028 | [2] -0.022 | encorafenib -0.033 | [3] 0.028

ICAM4 (UniProt Q14773)
inactive: saracatinib -0.116 | sotrastaurin -0.042 | alvocidib -0.016 | Tubastatin A 0.101 | [1] -0.052 | defactinib -0.082 | rucaparib 0.037 | [2] -0.028 | encorafenib 0.037 | [3] -0.007

HIRIP3 (UniProt Q9BW71)
inactive: saracatinib 0.046 | sotrastaurin 0.015 | alvocidib -0.05 | Tubastatin A 0.052 | [1] -0.059 | defactinib -0.107 | rucaparib -0.091 | [2] -0.021 | encorafenib 0.012 | [3] -0.027

HMGN2 (UniProt P05204)
inactive: saracatinib -0.138 | sotrastaurin 0.156 | Tubastatin A -0.05 | [1] 0.026 | defactinib 0.046 | rucaparib 0.13 | [2] 0.075 | encorafenib -0.091 | [3] 0.013

HMGCLL1 (UniProt Q8TB92)
inactive: saracatinib -0.019 | sotrastaurin 0.015 | alvocidib 0.002 | Tubastatin A -0.053 | [1] 0.038 | defactinib -0.045 | rucaparib -0.061 | [2] -0.002 | encorafenib -0.027 | [3] 0.021

HMGN4 (UniProt O00479)
inactive: saracatinib -0.832 | sotrastaurin -0.257 | alvocidib -0.074 | Tubastatin A -0.063 | [1] -0.001 | defactinib 0.007 | rucaparib 0.294 | [2] -0.132 | encorafenib -0.114 | [3] -0.066

ICAM2 (UniProt P13598)
inactive: saracatinib 0.076 | sotrastaurin 0.01 | alvocidib -0.085 | Tubastatin A 0.053 | [1] -0.015 | defactinib -0.04 | rucaparib 0.007 | [2] 0.016 | encorafenib -0.045 | [3] -0.023

HMMR isoform 3 (UniProt O75330)
inactive: saracatinib -0.088 | sotrastaurin -0.044 | alvocidib -0.039 | Tubastatin A 0.059 | [1] 0.004 | defactinib -0.02 | rucaparib 0.163 | [2] 0.076 | encorafenib 0.124 | [3] -0.012

HTATIP2 isoform 3 (UniProt Q9BUP3)
inactive: saracatinib -0.016 | sotrastaurin 0.023 | Tubastatin A -0.009 | [1] -0.001 | defactinib -0.065 | rucaparib 0.023 | [2] 0.022 | encorafenib 0.01 | [3] -0.016

HSP90AB4P (UniProt Q58FF6)
inactive: saracatinib -0.04 | sotrastaurin -0.044 | alvocidib -0.095 | Tubastatin A 0.05 | [1] -0.11 | rucaparib -0.342 | [2] 0.109 | encorafenib 0.167

HLA-E (UniProt P13747)
inactive: saracatinib 0.007 | sotrastaurin -0.022 | alvocidib -0.064 | Tubastatin A -0.08 | [2] -0.067

HSPA4L (UniProt O95757)
inactive: saracatinib 0.044 | sotrastaurin 0.002 | alvocidib -0.048 | Tubastatin A -0.01 | [1] -0.004 | defactinib -0.029 | rucaparib -0.035 | [2] 0.001 | encorafenib 0.007 | [3] 0

HNRNPH2 (UniProt P55795)
inactive: saracatinib -0.065 | sotrastaurin -0.081 | Tubastatin A 0.101 | [1] -0.079 | defactinib -0.173 | rucaparib 0.002 | [2] -0.001 | encorafenib 0.02 | [3] -0.068

ICAM5 (UniProt Q9UMF0)
inactive: saracatinib -0.033 | sotrastaurin -0.111 | alvocidib -0.044 | Tubastatin A 0.244 | [1] 0.075 | defactinib -0.034 | rucaparib -0.263 | [2] 0.011 | encorafenib -0.025 | [3] 0.052

HUWE1 isoform 2 (UniProt Q7Z6Z7)
inactive: saracatinib 0.092 | sotrastaurin -0.152 | alvocidib -0.253 | [1] -0.066 | [2] 0.022

HNRNPL (UniProt P14866)
inactive: saracatinib -0.087 | sotrastaurin -0.216 | alvocidib 0.11 | Tubastatin A 0.072 | [1] 0.034 | rucaparib 0.405 | [2] -0.024 | encorafenib 0.049

HPCAL1 (UniProt P37235)
inactive: saracatinib 0.011 | sotrastaurin 0.017 | Tubastatin A -0.085 | [1] 0.048 | defactinib -0.008 | rucaparib 0.013 | [2] -0.107 | encorafenib -0.014 | [3] -0.025

HSPA13 (UniProt P48723)
inactive: saracatinib 0.014 | sotrastaurin -0.015 | alvocidib 0.03 | Tubastatin A 0.036 | [1] -0.048 | defactinib 0.001 | rucaparib -0.019 | [2] 0.018 | encorafenib 0.084 | [3] -0.085

HSP90AB3P (UniProt Q58FF7)
inactive: saracatinib 0.029 | sotrastaurin 0.008 | alvocidib 0.115 | [1] 0.197 | rucaparib -0.023 | [2] 0.068 | encorafenib 0.049

HS2ST1 (UniProt Q7LGA3)
inactive: saracatinib 0.016 | sotrastaurin 0.024 | alvocidib 0.067 | Tubastatin A -0.021 | [1] -0.037 | defactinib 0.104 | rucaparib 0.127 | [2] -0.092 | encorafenib 0.011 | [3] 0.021

HIKESHI (UniProt Q53FT3)
inactive: saracatinib 0.03 | sotrastaurin 0.043 | Tubastatin A -0.01 | [1] 0.046 | defactinib -0.038 | rucaparib 0.029 | [2] -0.003 | encorafenib 0.024 | [3] 0.028
